Laboratory results taken from patent US11414677B2, “Methods and compositions for performing continuous directed evolution” (Massachusetts Institute of Technology, priority 2017, dated 2022).
At least one structure is not confirmed: it was looked up by name or label, or the drawing left a doubt. Some entries share one result that the patent states for a list of compounds.

What was measured:
RFP.ΔAdPol.adenovirus = experiment: Time course of antibiotic inhibition of adenoviral replication; format: cell-based, Adenovirus type 5; conditions: cultures treated up to 10 h post-infection, MOI 1, harvest 2 days post-infection
Text: FIGS. 47A-47B. Time-course of antibiotic-mediated inhibition of adenoviral infection. HEK293A cells expressing wild-type AdPol were infected with RFP.ΔAdPol.adenovirus and treated with either a) puromycin, or b) blasticidin at various time points post-infection (h.p.i.=hours post-infection). After 2 days, the infections were harvested and titered by flow cytometry. Titers are given in infectious units per milliliter (IU/mL), defined as the volume of adenoviral supernatant required to induce fluorescence in a cell as analyzed by flow cytometry. Dashed line represents the limit of detection (L.O.D) of the assay. Titers below this limit are inaccurate due to the percentage of infected cells being below the 1% error threshold of flow cytometry.
RFP.ΔAdPol.adenovirus (TABLE 16) was used to infect a 24-well plate of wild-type AdPol cells (150,000 cells/well) (TABLE 17) at MOI=1, and either blasticidin or puromycin was added at various time points following the infection. Viral supernatants were harvested ˜48 h post-infection, and titered by flow cytometry as described above.

tTAwt.mCherry adenovirus = experiment: Doxycycline dose response of tTAwt.mCherry adenovirus titer in TRE3G.AdProt cells; format: cell-based, Adenovirus type 5
Protocol: FIG. 36. Dose response of tTA-mCherry titer when treated with doxycycline. […] Titer is given in “infectious units per mL” (IU/mL), which is defined as the number of viruses per mL that are able to elicit a fluorescent signal in cells when analyzed by flow cytometry.
A semi-confluent dish of TRE3G.AdProt cells (˜160,000 cells) (TABLE 13) was infected with tTAwt. mCherry adenovirus (multiplicity of infection ˜2.5) (TABLE 12). After 3 h, the cells were washed twice, and fresh tet-approved media (Takara Bio) supplemented with various concentrations of dox was added. 5 days later, the virus lysates were harvested and viral titers were analyzed by flow cytometry.

CN(CC[C@H](N)CC(=O)N[C@H]1C=C[C@H](n2ccc(N)nc2=O)O[C@@H]1C(=O)O)C(=N)N [blasticidin]
reduction of adenoviral infection (RFP.ΔAdPol.adenovirus): at least 10,000 fold

C[C@H]1c2cccc(O)c2C(=O)C2=C(O)[C@]3(O)C(=O)C(C(N)=O)=C(O)[C@@H](N(C)C)[C@@H]3[C@@H](O)[C@@H]21 [dox, doxycycline]
infectivity (titer, IU/mL) in response to dox treatment (tTAwt.mCherry adenovirus): linear reduction in infectivity | linear range of dox (tTAwt.mCherry adenovirus): two orders of magnitude

COc1ccc(C[C@H](N)C(=O)N[C@H]2[C@@H](O)[C@H](n3cnc4c(N(C)C)ncnc43)O[C@@H]2CO)cc1 [puromycin]
reduction of adenoviral infection (RFP.ΔAdPol.adenovirus): at least 10,000 fold
